The target in the assay is T1, wild-type FOXN1 (human), FLAG- or myc-tagged (human) (UniProt O15353).
T1 sequence: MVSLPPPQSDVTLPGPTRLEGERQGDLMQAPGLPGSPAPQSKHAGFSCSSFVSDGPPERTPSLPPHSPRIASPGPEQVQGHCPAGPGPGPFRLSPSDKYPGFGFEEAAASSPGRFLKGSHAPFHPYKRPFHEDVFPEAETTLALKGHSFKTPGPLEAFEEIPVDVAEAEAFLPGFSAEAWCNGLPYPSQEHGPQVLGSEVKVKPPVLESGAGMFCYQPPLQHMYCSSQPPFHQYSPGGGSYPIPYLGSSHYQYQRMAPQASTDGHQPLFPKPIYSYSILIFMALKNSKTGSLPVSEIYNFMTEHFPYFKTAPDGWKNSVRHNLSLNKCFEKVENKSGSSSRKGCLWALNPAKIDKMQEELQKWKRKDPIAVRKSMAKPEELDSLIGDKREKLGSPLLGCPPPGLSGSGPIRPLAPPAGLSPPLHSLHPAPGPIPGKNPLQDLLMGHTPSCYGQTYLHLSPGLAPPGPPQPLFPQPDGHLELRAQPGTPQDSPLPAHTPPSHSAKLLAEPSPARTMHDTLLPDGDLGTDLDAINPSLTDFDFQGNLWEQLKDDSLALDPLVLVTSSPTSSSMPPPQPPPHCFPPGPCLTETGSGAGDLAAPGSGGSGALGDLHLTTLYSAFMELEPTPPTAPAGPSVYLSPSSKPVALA
The assay can be described thus: affinity purification with mass spectrometry; Anti-FLAG immunoprecipitation from nuclear lysates of 4D6 cells expressing wild-type-FLAG or Δ550-FLAG FOXN1. Beads treated with 1 mM DSSO, elution with 3x FLAG peptide, LC-MS/MS with label-free quantitation, three replicates each.

Protein sequences, listed by entry. Tags and fused reporters are not part of them.
UniProt Q92793: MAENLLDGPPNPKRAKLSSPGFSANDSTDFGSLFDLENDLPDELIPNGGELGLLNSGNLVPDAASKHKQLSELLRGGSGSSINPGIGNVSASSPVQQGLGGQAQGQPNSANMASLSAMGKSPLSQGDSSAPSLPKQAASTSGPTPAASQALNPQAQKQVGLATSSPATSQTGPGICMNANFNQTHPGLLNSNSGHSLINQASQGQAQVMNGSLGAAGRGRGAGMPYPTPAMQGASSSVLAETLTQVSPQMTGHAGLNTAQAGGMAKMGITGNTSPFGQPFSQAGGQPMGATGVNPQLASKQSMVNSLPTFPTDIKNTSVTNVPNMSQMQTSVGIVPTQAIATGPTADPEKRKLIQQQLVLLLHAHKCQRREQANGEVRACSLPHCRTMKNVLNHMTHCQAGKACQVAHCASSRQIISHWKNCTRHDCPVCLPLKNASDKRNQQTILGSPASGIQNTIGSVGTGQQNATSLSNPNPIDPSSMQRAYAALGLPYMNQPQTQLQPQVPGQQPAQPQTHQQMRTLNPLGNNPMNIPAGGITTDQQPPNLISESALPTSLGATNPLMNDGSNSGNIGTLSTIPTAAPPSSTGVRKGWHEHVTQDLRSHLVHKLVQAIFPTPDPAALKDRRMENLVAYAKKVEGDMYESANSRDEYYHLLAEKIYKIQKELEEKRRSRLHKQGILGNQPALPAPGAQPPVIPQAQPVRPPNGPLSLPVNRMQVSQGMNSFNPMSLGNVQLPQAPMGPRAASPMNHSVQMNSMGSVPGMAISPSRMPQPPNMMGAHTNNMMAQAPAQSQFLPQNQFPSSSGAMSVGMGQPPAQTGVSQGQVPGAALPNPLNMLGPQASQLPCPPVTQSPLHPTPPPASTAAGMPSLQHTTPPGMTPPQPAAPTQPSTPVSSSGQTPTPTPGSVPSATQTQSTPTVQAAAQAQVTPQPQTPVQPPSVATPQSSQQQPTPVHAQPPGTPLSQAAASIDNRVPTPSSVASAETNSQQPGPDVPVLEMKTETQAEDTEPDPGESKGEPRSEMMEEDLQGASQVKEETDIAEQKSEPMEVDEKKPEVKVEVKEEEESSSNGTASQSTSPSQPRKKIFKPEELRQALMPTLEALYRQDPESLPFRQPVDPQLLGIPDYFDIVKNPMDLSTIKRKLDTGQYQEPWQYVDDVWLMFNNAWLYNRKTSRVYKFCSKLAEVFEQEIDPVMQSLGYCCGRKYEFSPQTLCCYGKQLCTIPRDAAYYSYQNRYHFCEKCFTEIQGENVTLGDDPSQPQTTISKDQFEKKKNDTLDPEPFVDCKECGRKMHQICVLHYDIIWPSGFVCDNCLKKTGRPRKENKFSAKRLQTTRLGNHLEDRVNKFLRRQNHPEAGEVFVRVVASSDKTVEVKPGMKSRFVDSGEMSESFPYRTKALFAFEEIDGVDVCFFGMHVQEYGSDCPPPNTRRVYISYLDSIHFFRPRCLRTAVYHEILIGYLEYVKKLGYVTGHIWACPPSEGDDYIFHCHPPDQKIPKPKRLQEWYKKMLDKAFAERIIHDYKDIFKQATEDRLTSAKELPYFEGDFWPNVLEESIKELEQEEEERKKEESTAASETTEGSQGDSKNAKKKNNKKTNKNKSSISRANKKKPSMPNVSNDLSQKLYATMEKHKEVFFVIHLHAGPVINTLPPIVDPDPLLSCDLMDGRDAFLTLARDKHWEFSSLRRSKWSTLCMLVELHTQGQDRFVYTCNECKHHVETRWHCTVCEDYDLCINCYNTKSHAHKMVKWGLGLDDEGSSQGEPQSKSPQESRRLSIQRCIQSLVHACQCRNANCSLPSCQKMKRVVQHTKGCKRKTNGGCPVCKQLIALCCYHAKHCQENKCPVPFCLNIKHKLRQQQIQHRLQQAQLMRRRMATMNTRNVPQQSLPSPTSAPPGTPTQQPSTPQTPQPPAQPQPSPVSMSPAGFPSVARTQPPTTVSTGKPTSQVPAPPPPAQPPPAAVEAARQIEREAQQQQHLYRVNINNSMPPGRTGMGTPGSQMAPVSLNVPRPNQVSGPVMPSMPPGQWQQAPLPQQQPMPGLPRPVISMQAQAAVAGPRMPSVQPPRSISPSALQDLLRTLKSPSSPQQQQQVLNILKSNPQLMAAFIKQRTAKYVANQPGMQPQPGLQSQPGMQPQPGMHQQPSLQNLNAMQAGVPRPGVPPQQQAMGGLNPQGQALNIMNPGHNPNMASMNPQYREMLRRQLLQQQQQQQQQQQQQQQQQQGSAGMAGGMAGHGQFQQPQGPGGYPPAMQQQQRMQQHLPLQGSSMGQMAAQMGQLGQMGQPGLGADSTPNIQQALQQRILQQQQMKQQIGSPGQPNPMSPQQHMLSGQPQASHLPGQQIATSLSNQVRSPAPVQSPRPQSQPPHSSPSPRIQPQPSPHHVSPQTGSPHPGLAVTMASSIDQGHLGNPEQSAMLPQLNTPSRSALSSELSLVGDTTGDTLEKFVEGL
UniProt P67809: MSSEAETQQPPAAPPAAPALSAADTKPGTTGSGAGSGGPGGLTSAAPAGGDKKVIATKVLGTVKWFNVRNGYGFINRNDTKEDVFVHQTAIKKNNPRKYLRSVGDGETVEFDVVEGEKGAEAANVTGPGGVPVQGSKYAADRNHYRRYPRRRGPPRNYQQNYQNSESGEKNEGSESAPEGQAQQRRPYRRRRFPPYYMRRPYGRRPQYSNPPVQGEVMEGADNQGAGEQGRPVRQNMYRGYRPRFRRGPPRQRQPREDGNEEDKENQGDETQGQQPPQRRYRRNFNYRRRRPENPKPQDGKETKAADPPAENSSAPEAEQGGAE

Results are given in words; binding and its absence hold for the method and conditions named. Binding seen in cells or lysates may run through a third protein. Here binding means that the protein was enriched with, or labelled near, the bait; the list need not be complete. Sequences can lack the tags named with a protein.

For “Creb binding protein (CBP) (from UniProt Q92793 1-2442)”, the binding result is listed as “binds”.

As to “Y box-binding protein 1 (YBX1) (from UniProt P67809 1-324)”, the binding result is “binds”.

The values are drawn from article PMC8641933.
